Results are given in words; binding and its absence hold for the method and conditions named. Some binding calls cover weakened binding; strength is not graded here.
Key:
[1] = target: T1, recombinant human soluble CD14 (clone 523) (human) (UniProt P08571); assay: ELISA screening
T1 sequence (looked up): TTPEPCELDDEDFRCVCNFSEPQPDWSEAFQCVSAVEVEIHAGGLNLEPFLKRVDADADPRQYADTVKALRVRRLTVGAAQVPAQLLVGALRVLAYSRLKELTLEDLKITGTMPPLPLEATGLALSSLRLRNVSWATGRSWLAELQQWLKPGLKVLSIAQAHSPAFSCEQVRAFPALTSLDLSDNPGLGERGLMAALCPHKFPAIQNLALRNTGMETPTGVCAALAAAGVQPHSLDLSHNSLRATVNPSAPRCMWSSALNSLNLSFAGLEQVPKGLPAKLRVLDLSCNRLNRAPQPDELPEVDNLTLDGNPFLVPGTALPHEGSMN

[2] = target: T1, recombinant human soluble CD14 (clone 523) (human); assay: ELISA on sCD14-coated plate

binding [1]: binds
binding [2]: binds
B1: monoclonal antibody 18E12 (antibody, V domains shown)
VH: PPLESGPGLVAPSQSLSITCTVSGFSLTNYDISWIRQPPGKGLEWLGVIWTSGGTNYNSAFMSRLSITKDNSKSQVFLKMNGLQTDDTGISYCVRGDGNFYLYNFDYWGQGTTLTVSS
VL: MTQTPSSLSASLGDRVTISCRASQDIKNYLNWYQQGPGGTVKVLIYYTSRLHSGVPSRFSGSGSGTDYSLTISNLEQEDFATYFCQRGDTLPWTFGGGTKLEIKT
